According to publication PMC3585223:
For at least one entry, the source does not settle the construct or the ends of the probe. Negatives hold for the conditions tested.

Assays:
[1] = biological target: MBP-AaERF1 (Artemisia annua) (UniProt G8GKQ7); test: EMSA; settings: EMSA per protocol of Zhang et al. [45]; pH and temperature not given; recombinant protein; residues 1-253; protein details: N-terminal MBP (pMAL-C2); label: 3' biotin
[2] = tested on: MBP; test: EMSA; settings: EMSA per protocol of Zhang et al. [45]; pH and temperature not given; recombinant protein; label: 3' biotin

Sequence	binding result [1]	binding result [2]
CATAAGATCCTCCACT (double strand) [mGCC box probe]	no binding	
CATAAGAGCCGCCACT (double strand) [GCC box probe]	binds	no binding
